The text below walks through data of publication PMC5348811.

Amino acid sequences for entries named in this document (tags omitted). A change or cut given only in a name is not applied to a line headed by its entry.
UniProt O00716: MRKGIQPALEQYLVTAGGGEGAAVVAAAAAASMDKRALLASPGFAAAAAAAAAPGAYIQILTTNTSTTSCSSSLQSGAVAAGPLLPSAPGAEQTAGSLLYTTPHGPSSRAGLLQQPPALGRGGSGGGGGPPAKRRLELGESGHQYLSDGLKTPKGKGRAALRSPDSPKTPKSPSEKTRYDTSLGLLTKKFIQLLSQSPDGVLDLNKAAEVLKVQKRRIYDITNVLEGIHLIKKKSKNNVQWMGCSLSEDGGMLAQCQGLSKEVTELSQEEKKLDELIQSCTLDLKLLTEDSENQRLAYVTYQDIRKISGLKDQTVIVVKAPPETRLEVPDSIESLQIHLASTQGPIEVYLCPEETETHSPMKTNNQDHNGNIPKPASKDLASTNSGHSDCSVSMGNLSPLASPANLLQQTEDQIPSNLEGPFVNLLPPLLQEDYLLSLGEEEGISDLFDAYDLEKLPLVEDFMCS
UniProt Q9UM11: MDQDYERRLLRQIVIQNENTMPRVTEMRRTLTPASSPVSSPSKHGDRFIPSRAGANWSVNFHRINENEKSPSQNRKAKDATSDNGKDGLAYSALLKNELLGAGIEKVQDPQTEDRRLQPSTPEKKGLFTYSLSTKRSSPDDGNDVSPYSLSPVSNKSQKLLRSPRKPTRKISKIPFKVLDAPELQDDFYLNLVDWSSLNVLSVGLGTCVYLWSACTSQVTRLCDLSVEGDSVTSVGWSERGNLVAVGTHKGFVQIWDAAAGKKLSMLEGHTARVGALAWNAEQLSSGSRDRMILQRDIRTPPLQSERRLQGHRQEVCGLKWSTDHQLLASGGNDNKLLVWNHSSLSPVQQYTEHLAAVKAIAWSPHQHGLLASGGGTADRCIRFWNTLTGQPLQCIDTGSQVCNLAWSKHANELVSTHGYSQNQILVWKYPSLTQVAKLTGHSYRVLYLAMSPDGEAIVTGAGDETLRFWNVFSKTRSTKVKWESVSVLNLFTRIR

In this test the target is T1, GST-RB large pocket (amino acids 379-928) (human) (UniProt P06400).
T1 sequence: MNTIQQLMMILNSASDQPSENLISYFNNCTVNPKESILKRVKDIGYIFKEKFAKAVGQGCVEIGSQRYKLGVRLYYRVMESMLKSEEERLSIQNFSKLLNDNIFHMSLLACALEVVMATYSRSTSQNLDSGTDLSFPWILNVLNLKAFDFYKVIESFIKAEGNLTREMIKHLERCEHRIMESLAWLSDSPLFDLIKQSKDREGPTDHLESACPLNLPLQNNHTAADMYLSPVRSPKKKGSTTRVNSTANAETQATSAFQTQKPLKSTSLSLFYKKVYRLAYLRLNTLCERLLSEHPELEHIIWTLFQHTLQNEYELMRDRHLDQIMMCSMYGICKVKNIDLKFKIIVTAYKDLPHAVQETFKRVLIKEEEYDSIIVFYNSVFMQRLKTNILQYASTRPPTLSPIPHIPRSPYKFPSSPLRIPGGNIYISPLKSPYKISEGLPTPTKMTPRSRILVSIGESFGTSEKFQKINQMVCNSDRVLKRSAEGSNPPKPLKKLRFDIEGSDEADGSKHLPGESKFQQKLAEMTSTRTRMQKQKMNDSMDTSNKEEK
In words: pull-down; competition: purified GST-RBLP or GST-RBLP^G with constant myc-CDH1 C33A extract and increasing amounts of HA-E2F3/DP1 C33A extract; glutathione beads; western blot for myc and HA; only the target purified.

These are yes or no findings as the source states them, for the method shown. Binding seen in cells or lysates may run through a third protein. Some results given as binding are weak or reduced against the parent protein; the word gives no strength. Tags and fused reporters may be left off the sequences shown.

On to “HA-E2F3/DP1 (from UniProt O00716 1-465; Q14186 1-410) (complex)”, for which the binding entry was “binds”. As to “myc tagged CDH1 (anaphase promoting complex targeting subunit) (from UniProt Q9UM11 1-496)”, the binding entry is “binds”.
